Paper PMC5386651
Results are given in words; binding and its absence hold for the method and conditions named. Binding seen in cells or lysates may run through a third protein. Some entries that bind do so weakly or less than the wild type.

Amino acid sequences for entries named in this document (tags omitted). Residues count along the entry.
UniProt O94925, residues 55-669: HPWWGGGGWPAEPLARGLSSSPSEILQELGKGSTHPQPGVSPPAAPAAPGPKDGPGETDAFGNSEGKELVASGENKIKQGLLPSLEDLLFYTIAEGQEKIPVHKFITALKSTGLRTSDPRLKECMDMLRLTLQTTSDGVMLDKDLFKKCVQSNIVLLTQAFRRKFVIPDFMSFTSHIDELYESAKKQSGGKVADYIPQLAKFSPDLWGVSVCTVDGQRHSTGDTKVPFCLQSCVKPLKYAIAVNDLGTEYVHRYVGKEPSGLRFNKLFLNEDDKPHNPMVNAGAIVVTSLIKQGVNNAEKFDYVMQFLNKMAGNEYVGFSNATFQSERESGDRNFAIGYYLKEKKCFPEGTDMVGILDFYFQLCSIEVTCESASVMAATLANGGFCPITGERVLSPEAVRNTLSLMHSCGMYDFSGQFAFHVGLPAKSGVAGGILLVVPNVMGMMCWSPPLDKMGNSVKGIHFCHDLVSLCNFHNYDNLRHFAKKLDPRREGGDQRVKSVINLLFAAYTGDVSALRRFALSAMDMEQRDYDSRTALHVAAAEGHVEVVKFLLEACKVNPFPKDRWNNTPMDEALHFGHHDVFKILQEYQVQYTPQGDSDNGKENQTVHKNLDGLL
UniProt Q9UM11: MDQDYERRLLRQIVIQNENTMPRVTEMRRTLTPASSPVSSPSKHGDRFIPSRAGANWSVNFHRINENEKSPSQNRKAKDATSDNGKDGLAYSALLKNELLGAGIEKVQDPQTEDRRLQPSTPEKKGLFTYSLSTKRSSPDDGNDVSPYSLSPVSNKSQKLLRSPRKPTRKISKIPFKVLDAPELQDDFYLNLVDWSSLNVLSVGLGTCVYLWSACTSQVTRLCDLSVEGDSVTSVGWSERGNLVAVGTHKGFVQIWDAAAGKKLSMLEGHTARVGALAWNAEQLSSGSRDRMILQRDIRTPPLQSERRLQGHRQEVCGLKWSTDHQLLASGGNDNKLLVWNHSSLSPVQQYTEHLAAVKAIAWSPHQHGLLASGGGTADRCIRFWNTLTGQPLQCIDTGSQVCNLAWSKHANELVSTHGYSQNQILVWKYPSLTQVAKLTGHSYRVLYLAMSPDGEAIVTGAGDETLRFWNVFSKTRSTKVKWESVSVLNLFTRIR

Target: GLS1 (glutaminase) (human (endogenous in HCT116 and HT29)) (UniProt O94925)
Assay: co-IP; lysates (RIPA, 200 ug protein) of cells transfected with HA-CDH1 and treated with 10 umol/l selenite for 24 h or control; precipitated with GLS1 antibody, protein A + G agarose beads; blotted for HA

binding: binds
Substance: HA-CDH1 (from UniProt Q9UM11 1-496)
